Source: the supplement of paper PMC12823440, “Inhibitors supercharge kinase turnover through native proteolytic circuits” (Nature, 2025)
Where a name gives a salt, the structure may show the parent alone. Some of the results follow. The calls rarely recur for the same compound in another form.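 Kinases were expressed as nanoluciferase fusions in K562 cells and luminescence was read every 4 h between 2 and 18 h as percent of control, DMSO set to 100% and a positive control to 0%. A time point counts as decreased when the signal drops significantly (2 sigma). The hit call is the authors' own, does not follow from the count of time points alone, and its rule is not shown.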

Chains of the proteins cited; added tags and fusions are not shown. Lines headed by an entry give the natural chain unless they say otherwise; changes in a name come on top.
UniProt Q9UM73: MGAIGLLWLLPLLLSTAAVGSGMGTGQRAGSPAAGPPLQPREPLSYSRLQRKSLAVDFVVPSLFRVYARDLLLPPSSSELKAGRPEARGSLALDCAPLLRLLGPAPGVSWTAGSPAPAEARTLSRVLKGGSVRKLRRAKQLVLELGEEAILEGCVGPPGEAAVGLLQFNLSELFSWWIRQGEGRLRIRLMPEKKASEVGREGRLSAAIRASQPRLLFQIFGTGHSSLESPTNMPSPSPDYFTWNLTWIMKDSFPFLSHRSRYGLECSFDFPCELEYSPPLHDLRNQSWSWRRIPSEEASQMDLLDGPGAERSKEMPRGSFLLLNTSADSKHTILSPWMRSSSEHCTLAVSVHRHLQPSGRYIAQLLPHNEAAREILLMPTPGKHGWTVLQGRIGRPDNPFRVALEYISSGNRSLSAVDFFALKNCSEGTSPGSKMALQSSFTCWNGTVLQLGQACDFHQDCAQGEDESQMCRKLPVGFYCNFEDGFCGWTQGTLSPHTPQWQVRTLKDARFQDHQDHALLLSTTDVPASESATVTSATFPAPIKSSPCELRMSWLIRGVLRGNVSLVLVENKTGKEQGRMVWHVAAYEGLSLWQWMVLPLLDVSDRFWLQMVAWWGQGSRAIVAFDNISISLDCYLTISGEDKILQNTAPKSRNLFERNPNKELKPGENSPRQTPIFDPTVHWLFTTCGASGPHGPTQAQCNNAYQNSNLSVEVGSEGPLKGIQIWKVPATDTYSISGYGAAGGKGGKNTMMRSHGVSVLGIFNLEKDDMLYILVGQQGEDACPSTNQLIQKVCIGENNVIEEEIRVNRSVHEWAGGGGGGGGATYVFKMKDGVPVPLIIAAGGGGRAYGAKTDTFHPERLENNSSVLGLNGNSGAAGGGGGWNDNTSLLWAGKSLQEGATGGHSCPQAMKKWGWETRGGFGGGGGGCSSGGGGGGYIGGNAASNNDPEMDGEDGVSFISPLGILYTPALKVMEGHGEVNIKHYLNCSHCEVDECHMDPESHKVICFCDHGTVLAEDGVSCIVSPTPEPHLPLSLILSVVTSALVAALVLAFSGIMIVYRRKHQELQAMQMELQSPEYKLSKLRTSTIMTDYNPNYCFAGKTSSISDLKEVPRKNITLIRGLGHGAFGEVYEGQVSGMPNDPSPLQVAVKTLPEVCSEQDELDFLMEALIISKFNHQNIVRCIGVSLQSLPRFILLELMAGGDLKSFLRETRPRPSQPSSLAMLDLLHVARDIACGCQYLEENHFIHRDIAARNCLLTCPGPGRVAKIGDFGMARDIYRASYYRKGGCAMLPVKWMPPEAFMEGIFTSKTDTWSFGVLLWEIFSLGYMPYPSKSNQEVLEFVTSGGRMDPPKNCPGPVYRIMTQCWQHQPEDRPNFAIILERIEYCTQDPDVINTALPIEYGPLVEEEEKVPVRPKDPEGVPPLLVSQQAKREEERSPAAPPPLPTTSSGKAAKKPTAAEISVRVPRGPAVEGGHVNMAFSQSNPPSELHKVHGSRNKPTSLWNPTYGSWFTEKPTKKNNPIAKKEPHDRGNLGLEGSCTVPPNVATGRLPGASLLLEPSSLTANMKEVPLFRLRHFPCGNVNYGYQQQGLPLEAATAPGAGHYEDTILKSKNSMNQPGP
UniProt P10398: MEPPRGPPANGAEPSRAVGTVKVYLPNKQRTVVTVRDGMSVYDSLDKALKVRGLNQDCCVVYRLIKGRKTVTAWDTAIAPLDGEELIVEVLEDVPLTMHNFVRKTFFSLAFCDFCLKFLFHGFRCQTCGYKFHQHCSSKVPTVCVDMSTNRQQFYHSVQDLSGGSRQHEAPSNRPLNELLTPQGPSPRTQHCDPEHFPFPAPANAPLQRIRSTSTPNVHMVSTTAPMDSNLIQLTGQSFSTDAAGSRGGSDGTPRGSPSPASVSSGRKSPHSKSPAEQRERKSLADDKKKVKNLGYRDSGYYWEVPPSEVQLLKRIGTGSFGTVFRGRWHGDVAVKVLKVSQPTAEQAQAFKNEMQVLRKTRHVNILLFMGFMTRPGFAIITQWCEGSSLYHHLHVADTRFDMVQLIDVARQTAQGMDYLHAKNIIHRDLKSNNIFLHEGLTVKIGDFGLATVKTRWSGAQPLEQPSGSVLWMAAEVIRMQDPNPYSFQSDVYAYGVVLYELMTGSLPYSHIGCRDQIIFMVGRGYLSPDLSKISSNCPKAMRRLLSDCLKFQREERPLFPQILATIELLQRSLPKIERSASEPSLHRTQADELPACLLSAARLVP
UniProt O14965: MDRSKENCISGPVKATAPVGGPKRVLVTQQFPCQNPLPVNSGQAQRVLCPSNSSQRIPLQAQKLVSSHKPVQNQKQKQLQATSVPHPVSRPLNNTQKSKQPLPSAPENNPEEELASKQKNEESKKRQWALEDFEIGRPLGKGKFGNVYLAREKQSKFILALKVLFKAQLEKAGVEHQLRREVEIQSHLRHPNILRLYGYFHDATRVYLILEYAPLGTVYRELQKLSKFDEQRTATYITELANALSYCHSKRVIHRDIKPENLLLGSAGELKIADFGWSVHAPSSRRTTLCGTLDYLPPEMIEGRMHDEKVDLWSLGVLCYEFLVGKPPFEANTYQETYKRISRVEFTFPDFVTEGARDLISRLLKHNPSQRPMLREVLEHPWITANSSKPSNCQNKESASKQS
UniProt Q96GD4, whole entry: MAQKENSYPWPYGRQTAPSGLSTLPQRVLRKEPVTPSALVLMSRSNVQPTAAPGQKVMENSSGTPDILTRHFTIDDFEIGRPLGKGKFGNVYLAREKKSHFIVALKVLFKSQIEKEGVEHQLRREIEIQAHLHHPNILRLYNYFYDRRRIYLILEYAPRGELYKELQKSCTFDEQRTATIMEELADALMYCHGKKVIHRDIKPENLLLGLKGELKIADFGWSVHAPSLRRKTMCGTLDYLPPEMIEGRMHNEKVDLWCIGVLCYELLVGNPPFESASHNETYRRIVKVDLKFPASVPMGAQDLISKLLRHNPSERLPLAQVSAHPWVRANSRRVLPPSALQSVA
UniProt Q9UQB9: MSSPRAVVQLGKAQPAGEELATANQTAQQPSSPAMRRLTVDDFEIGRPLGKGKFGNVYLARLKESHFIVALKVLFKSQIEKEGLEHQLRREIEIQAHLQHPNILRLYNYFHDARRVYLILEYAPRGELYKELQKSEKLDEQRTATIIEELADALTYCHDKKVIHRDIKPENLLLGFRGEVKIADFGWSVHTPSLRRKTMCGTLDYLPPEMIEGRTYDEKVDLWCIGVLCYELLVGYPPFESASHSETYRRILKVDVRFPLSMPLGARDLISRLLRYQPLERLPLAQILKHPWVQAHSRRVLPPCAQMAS
UniProt P51451: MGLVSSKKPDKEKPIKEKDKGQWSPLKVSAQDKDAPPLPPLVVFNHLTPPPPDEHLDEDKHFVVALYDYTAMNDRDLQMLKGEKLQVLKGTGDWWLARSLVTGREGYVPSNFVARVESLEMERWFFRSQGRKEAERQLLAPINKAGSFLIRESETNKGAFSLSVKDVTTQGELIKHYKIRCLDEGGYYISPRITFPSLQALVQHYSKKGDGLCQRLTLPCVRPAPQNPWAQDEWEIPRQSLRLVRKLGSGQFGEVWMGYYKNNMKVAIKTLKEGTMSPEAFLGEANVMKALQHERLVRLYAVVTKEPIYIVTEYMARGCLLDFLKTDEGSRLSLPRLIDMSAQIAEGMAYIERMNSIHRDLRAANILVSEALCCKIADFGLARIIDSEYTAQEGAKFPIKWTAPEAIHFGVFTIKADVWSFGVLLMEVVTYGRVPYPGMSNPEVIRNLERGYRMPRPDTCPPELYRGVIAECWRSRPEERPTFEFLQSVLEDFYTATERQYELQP
UniProt P51813: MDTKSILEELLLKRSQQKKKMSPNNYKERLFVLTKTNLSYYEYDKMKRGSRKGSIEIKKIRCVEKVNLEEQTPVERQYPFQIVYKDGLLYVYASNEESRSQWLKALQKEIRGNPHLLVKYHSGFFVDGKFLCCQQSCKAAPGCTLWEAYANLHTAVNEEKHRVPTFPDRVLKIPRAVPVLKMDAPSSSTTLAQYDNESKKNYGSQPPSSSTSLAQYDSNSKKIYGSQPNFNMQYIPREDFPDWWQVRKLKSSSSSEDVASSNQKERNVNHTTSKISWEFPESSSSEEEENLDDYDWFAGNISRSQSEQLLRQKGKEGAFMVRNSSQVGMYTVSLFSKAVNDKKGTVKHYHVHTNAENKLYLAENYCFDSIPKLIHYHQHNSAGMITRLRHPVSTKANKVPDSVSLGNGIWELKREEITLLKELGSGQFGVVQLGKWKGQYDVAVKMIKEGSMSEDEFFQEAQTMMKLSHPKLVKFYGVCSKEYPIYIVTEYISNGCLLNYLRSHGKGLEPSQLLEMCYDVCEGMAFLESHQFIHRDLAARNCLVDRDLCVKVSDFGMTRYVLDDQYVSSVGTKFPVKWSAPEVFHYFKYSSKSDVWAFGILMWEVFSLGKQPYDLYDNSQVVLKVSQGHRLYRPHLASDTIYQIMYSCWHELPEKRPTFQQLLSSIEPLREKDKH
UniProt P15056, whole entry, looked up: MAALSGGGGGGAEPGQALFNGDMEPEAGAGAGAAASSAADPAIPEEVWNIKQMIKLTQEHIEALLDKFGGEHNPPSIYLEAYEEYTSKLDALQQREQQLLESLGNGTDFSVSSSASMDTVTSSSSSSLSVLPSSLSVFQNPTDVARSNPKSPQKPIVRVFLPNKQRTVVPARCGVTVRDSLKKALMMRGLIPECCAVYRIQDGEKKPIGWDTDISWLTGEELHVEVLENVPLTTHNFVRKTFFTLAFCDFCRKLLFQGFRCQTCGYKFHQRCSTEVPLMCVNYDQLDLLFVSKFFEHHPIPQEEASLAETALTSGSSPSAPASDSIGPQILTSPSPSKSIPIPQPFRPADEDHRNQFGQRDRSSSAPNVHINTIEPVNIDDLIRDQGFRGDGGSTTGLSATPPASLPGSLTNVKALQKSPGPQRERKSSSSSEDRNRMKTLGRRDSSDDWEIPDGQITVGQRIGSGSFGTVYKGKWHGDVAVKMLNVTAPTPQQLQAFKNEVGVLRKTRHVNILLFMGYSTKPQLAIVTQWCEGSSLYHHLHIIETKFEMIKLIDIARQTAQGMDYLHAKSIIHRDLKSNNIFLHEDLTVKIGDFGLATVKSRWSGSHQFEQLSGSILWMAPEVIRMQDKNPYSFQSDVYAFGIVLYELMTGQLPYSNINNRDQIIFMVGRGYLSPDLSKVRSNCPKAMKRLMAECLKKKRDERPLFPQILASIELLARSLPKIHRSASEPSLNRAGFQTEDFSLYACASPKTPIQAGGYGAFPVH
UniProt Q06187: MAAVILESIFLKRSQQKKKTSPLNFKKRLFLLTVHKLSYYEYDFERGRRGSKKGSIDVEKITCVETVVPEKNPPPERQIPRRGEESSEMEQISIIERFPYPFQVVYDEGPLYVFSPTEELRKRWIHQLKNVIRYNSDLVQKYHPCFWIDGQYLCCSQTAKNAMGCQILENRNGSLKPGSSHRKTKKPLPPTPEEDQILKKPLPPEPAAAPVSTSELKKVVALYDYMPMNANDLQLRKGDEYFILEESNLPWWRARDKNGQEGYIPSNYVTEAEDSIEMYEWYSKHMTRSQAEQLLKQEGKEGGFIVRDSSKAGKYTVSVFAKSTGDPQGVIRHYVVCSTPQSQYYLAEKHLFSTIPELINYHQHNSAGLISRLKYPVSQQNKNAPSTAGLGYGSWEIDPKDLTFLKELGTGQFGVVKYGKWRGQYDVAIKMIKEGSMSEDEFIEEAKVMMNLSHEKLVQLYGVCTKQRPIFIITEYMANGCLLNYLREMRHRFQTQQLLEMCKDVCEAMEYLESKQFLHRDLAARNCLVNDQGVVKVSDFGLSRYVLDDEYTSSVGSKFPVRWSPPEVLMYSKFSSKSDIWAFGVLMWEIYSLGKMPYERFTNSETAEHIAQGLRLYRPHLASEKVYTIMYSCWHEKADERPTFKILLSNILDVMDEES

How the values were obtained:
Test in all cases: number of time points (of 5) at which kinase-Nluc abundance scored as decreased, DMSO-normalised (count); higher = more persistent destabilization
Details in all cases: K562; 2-18 h
ALK = ALK (UniProt Q9UM73)
ARAF = ARAF (UniProt P10398)
AURKA = AURKA (UniProt O14965)
AURKB = AURKB (UniProt Q96GD4)
AURKC = AURKC (UniProt Q9UQB9)
BLK = BLK (UniProt P51451)
BMX = BMX (UniProt P51813)
BRAF = BRAF (UniProt P15056)
BRAF_V600E = system: BRAF_V600E
BTK = BTK (UniProt Q06187)

Measured: number of time points

Oc1ccccc1C(=S)N1CCCC1 (10 µM)
0: ALK | ARAF | AURKA | AURKB | AURKC | BLK | BMX | BRAF | BRAF_V600E | BTK

CC(C)(O)[C@@H]1CC[C@](C)([C@H]2[C@@H](O)C[C@@]3(C)[C@@H]4C[C@H](O[C@@H]5O[C@H](CO)[C@@H](O)[C@H](O)[C@H]5O)[C@H]5C(C)(C)[C@@H](O[C@@H]6OC[C@@H](O)[C@H](O)[C@H]6O[C@@H]6O[C@H](CO)[C@@H](O)[C@H](O)[C@H]6O)CC[C@@]56C[C@@]46CC[C@]23C)O1 [Astragaloside VI] (10 µM)
0: ALK | ARAF | AURKA | AURKB | AURKC | BLK | BMX | BRAF | BRAF_V600E | BTK

CCOc1ccccc1C=C1C(=O)Nc2ccccc21 (10 µM)
0: ALK | ARAF | AURKA | AURKB | AURKC | BLK | BMX | BRAF | BRAF_V600E | BTK

Nc1cc(C(F)(F)F)c(-c2nc(N3CCOCC3)nc(N3CCOCC3)n2)cn1 [Bimiralisib] (10 µM)
0: ALK | ARAF | AURKC | BRAF | BTK
1: BMX
4: AURKA | BRAF_V600E
3: AURKB | BLK

CN1C(=O)NC(Cc2c[nH]c3c(Cl)cccc23)C1=O (racemic) [Necrostatin 2 (racemate)] (10 µM)
0: ALK | ARAF | AURKA | AURKB | AURKC | BLK | BMX | BRAF | BRAF_V600E | BTK

C[C@@H]1COCCN1c1cc(=O)n2c(n1)N(Cc1cncc(Cl)c1)[C@H](C(F)(F)F)CC2 (10 µM)
2: BRAF_V600E
1: BLK
0: ALK | ARAF | AURKA | AURKB | AURKC | BMX | BRAF | BTK

NCCCCCCNS(=O)(=O)c1cccc2c(Cl)cccc12 [W-7 (hydrochloride)] (10 µM)
0: ALK | ARAF | AURKA | AURKB | AURKC | BLK | BMX | BRAF | BRAF_V600E | BTK

CCN1C(=O)CNc2ncc(-c3ccc(-c4nc[nH]n4)nc3C)nc21 [CC-115 (hydrochloride)] (2.5 µM)
3: AURKA | BMX
4: BRAF_V600E
2: BRAF
1: ALK | AURKB | BLK | BTK
0: ARAF | AURKC

c1ccc(-c2nn3c(c2-c2ccnc4cc(OCCN5CCOCC5)ccc24)CCC3)nc1 (10 µM)
0: ALK | ARAF | AURKA | AURKB | AURKC | BLK | BMX | BRAF | BRAF_V600E | BTK

CCCNC(=O)c1cn2ncnc(Nc3cc(C(=O)NC4CC4)ccc3C)c2c1C (10 µM)
0: ALK | ARAF | AURKA | AURKB | AURKC | BLK | BMX | BRAF | BRAF_V600E | BTK

CC1=C(C(=O)Nc2ccc3[nH]ncc3c2)C(c2ccc(F)cc2)NC(=O)N1 (stereo not given) (10 µM)
0: ALK | ARAF | AURKA | AURKB | AURKC | BLK | BMX | BRAF | BRAF_V600E | BTK

COc1ccc2c(c1)c(C1=C(c3c[nH]c4ccccc34)C(=O)NC1=O)cn2CCCN(C)C (10 µM)
0: ALK | ARAF | AURKA | AURKB | AURKC | BLK | BMX | BRAF | BRAF_V600E | BTK

CCc1c(C)sc(NC(=S)NC(=O)c2ccc(Cl)cc2)c1C(N)=O (10 µM)
0: ALK | ARAF | AURKA | AURKB | AURKC | BLK | BMX | BRAF | BRAF_V600E | BTK

Cc1nc(NC(=O)NCCc2nnn(CCF)n2)sc1-c1ccc(S(C)(=O)=O)c(F)c1 (10 µM)
0: ALK | ARAF | AURKA | AURKB | AURKC | BLK | BMX | BRAF | BRAF_V600E | BTK

C=C[C@H]1[C@H](O[C@@H]2O[C@H](CO)[C@@H](O)[C@H](O)[C@H]2OC(=O)c2c(O)cc(O)cc2-c2cccc(O)c2)OC=C2C(=O)OCC[C@H]21 [Amarogentin] (10 µM)
0: ALK | ARAF | AURKA | AURKB | AURKC | BLK | BMX | BRAF | BRAF_V600E | BTK

N#C/C(=C\c1ccc2oc(=O)[nH]c2c1)C(=O)c1ccc(O)c(O)c1 (10 µM)
0: ALK | ARAF | AURKA | AURKB | AURKC | BLK | BMX | BRAF | BRAF_V600E | BTK

Cc1ccc(-c2ccc3c(ccc4sc5c(c43)NC[C@@H](C)NC5=O)n2)cn1 (10 µM)
0: ALK | ARAF | AURKA | AURKB | AURKC | BLK | BMX | BRAF | BRAF_V600E | BTK

NC(=O)c1ccc(-c2cnn3ccc(NCc4cccnc4)nc23)cc1 (2.5 µM)
0: ALK | ARAF | AURKA | AURKB | AURKC | BLK | BMX | BRAF | BRAF_V600E | BTK

CCc1ccc(C(=O)COc2ccc(CC3SC(=O)NC3=O)cc2)nc1 (stereo not given) (10 µM)
0: ALK | ARAF | AURKA | AURKB | AURKC | BLK | BMX | BRAF | BRAF_V600E | BTK

COc1ccc2c(Oc3ccc(NC(=O)c4c(C)n(CC(C)(C)O)n(-c5ccccc5)c4=O)cc3F)ccnc2c1 (2.5 µM)
2: BRAF_V600E
0: ALK | ARAF | AURKA | AURKB | AURKC | BLK | BMX | BRAF | BTK

COc1cnccc1Nc1nc(-c2nn(Cc3c(F)cc(OCCO)cc3F)c3ccccc23)ncc1OC (10 µM)
0: ALK | ARAF | AURKA | AURKB | AURKC | BLK | BMX | BRAF | BRAF_V600E | BTK

CC(C)c1ccc(CC(=O)N2CCN(c3ccc(C#N)nn3)CC2)cc1 (10 µM)
0: ALK | ARAF | AURKA | AURKB | AURKC | BLK | BMX | BRAF | BRAF_V600E | BTK

CN(CC(=O)N(Cc1ccc(C2CCCCC2)cc1)c1ccc(C(=O)O)c(O)c1)S(=O)(=O)c1c(F)c(F)c(F)c(F)c1F (2.5 µM)
5: BLK
0: ALK | ARAF | AURKA | AURKB | AURKC | BMX | BRAF | BRAF_V600E | BTK

C[C@H]1[C@H](OC(=O)CCC(=O)O)O[C@@H]2O[C@@]3(C)CC[C@H]4[C@H](C)CC[C@@H]1[C@@]24OO3 [Artesunate] (2.5 µM)
0: ALK | ARAF | AURKC | BLK | BMX | BRAF | BTK
1: AURKA | AURKB | BRAF_V600E

CC1(COc2ccc3c(c2)ncn3-c2ccc3cccc(N4CCC(N)CC4)c3n2)COC1 [Crenolanib] (2.5 µM)
0: ALK | ARAF | AURKA | AURKB | AURKC | BLK | BRAF | BTK
1: BMX
2: BRAF_V600E

Structural class, those above containing a thiophene ring, fused or not.
CCc1c(C)sc(NC(=S)NC(=O)c2ccc(Cl)cc2)c1C(N)=O (10 µM)
0: ALK | ARAF | AURKA | AURKB | AURKC | BLK | BMX | BRAF | BRAF_V600E | BTK

Cc1ccc(-c2ccc3c(ccc4sc5c(c43)NC[C@@H](C)NC5=O)n2)cn1 (10 µM)
0: ALK | ARAF | AURKA | AURKB | AURKC | BLK | BMX | BRAF | BRAF_V600E | BTK

(further entries)

CC1(N)CCN(c2cnc3c(-c4cccc(Cl)c4Cl)[nH]nc3n2)CC1 (2.5 µM)
0: ALK | ARAF | AURKA | AURKB | AURKC | BMX | BRAF | BRAF_V600E | BTK
1: BLK

Nc1cc(C(F)F)c(-c2nc(N3C4CCC3COC4)nc(N3C4CCC3COC4)n2)cn1 (2.5 µM)
0: ALK | ARAF | AURKA | AURKB | AURKC | BLK | BRAF_V600E | BTK
3: BRAF
4: BMX

O=C(Nc1ccc(Cl)cc1)C1CCCN(C(=O)c2cccc(-c3ccco3)c2)C1 (stereo not given) (2.5 µM)
0: ALK | ARAF | AURKA | AURKB | AURKC | BLK | BMX | BRAF | BRAF_V600E | BTK

CC[C@@H](N)CNc1ccnc(-c2cc(-c3cnn(C)c3)ccc2O)n1 (2.5 µM)
3: BRAF_V600E
0: ALK | ARAF | AURKB | AURKC | BLK | BRAF | BTK
4: BMX
2: AURKA

O=C(CO)N1CCC(c2n[nH]c(-c3ccc(Cl)cc3)c2-c2ccncn2)CC1 (10 µM)
0: ALK | ARAF | AURKA | AURKB | AURKC | BLK | BMX | BRAF | BRAF_V600E | BTK

COc1cc(C(=O)N2CCC(N3CCN(C)CC3)CC2)ccc1Nc1ncc2c(n1)N(C)c1ccccc1C(=O)N2C (10 µM)
0: ALK | ARAF | AURKA | AURKB | AURKC | BLK | BMX | BRAF | BRAF_V600E | BTK

Nc1cccc(S(=O)(=O)N2CCCN(S(=O)(=O)c3ccc4c(c3)OCCO4)CC2)c1 (10 µM)
0: ALK | ARAF | AURKA | AURKB | AURKC | BLK | BMX | BRAF | BRAF_V600E | BTK

O=C(O)c1ccccc1Nc1cccc(C(F)(F)F)c1 [Flufenamic acid] (10 µM)
0: ALK | ARAF | AURKA | AURKB | AURKC | BLK | BMX | BRAF | BRAF_V600E | BTK

CN(C)c1ncnc2nc[nH]c12 [6-(Dimethylamino)purine] (10 µM)
0: ALK | ARAF | AURKA | AURKB | AURKC | BLK | BMX | BRAF | BRAF_V600E | BTK
